Experimental data from US11672842B2, “Gonadotropin-releasing hormones for use as adjuvant immunotherapeutics” (ISR IMMUNE SYSTEM REGULATION HOLDING AB (PUBL), priority 2017, dated 2023).
Part of at least one peptide drawing is inferred or uncertain, most often the ends.

Experiments:
[1] = Open-label phase IIa clinical study: serum FSH, LH and testosterone; format: in vivo, human
HIV infection = test: Follow-up study and interim analysis 36-48 months after the phase IIa study; format: in vivo, human; details: for patients who did not progress immunologically: 11 patients, at least 36 months
[2] = at the time of the follow-up visit
[3] = 36 to 48 months after four weeks of treatment
[4] = in the six non-progressing patients

CCNC(=O)[C@@H]1CCCN1C(=O)[C@H](CCCNC(=N)N)NC(=O)[C@H](CC(C)C)NC(=O)[C@@H](COC(C)(C)C)NC(=O)[C@H](Cc1ccc(O)cc1)NC(=O)[C@H](CO)NC(=O)[C@H](Cc1c[nH]c2ccccc12)NC(=O)[C@H](Cc1cnc[nH]1)NC(=O)[C@@H]1CCC(=O)N1 [buserelin acetate]
serum level of FSH [1, 2]: recovered
serum level of LH [1, 2]: recovered
serum level of endogenous testosterone [1, 2]: recovered
serum level of FSH ([1]; during the treatment period): decreased
serum level of LH ([1]; during the treatment period): decreased
serum level of endogenous testosterone ([1]; during the treatment period): decreased
patients with a history of pulmonary TB without dissemination since completion of the phase IIa study (HIV infection; 13 patients): 15%
patients who had started ART treatment by the time of reevaluation (HIV infection; 13 patients, 36-48 months after the phase IIa study): 54%
share of reevaluated patients who did not progress immunologically (in words) (HIV infection; [3]): about half
share of reevaluated patients who did not progress virologically (in words) (HIV infection; [3]): about one third
subjects with no progression in viral count or decrease in CD4+ cell counts (HIV infection; follow-up 36-48 months after end of treatment): 33-50%
long-term clinical progression of HIV (HIV infection; [4]): no clinical progression
long-term immunological activation of CD4+/CD8+ cells (HIV infection; [4]): sustained immunological activation
long-term viral load (HIV infection; [4]): no increase
patients with no immunological disease progression (HIV infection; interim analysis, nine patients with full clinical evaluation, 36-48 months): 66.7%
patients with no immunological disease progression (in words) (HIV infection; interim analysis, nine patients with full evaluation, 36-48 months): six out of the nine
Immunological Non-progression and Virological Non-progression, number of patients (HIV infection; six patients): 1
Immunological Non-progression and Virological Progression, number of patients (HIV infection; six patients): 1
Immunological Progression and Virological Non-progression, number of patients (HIV infection; six patients): 1
Immunological Progression and Virological Progression, number of patients (HIV infection; six patients): 3
patients who did neither progress virologically nor immunologically (HIV infection; six patients): 17%
patients who progressed immunologically and virologically (HIV infection; six patients): 50%
patients who progressed immunologically but not virologically (HIV infection; six patients): 17%
patients who progressed virologically but not immunologically (HIV infection; six patients): 17%
patients who did not progress virologically (HIV infection; six patients, visit 6 or 7 as baseline, at least 37 months): 33%
patients who did not progress immunologically (HIV infection; visit 6 as reference): 45%
patients who did not progress immunologically (HIV infection; visit 7 as reference): 55%
